Results from US20230295116A1, “PROTEASOME ENHANCERS AND USES THEREOF” (Board of Trustees of Michigan State University, priority 2020, published 2023).

Assays:
[1] = test system: MYC-mediated gene transcription; assay: Myc reporter assay (luciferase); format: cell-based; conditions: Homo sapiens, HCT-116; HCT116 Myc-Luc reporter cells, 16 hours, n=3; read-out: EC50 for inhibition of c-MYC
Description: (§1) Firefly luminescence was measured using the One-Step Luciferase Assay System from BPS Biosciences.
as §1

NF-kB transcription = assay: NF-κB reporter assay (luciferase); format: cell-based; conditions: Homo sapiens; HCT-116 NF-kappaB-luc reporter cells, TNF-alpha 2 ng/mL, 16 hours, n=3; read-out: EC50 for inhibition of NF-kB transcription
Description: as §1

## COc1ccc(CCN2CCC(Nc3nc4ccccc4n3Cc3ccc(F)cc3)CC2)cc1 [Compound 1, astemizole]
[1]
  EC50: 21.8 µM
NF-kB transcription
  EC50: 15.8 µM
